Results: EP4613859A1, “TLR SIGNALING INHIBITORY PEPTIDE AND COMPOSITION INCLUDING SAME FOR PREVENTION OR TREATMENT OF INFLAMMATORY DISEASES” (Korea Institute of Science and Technology, priority 2022, dated 2025)
At least one peptide structure holds a part that was inferred or is arguable (an end, a ring closure or a residue). Some entries repeat one wording, which the source may state once for all of them. No end group written: not given here.

Columns and labels:
TLR4 = test: HEK-Blue hTLR4 SEAP reporter assay, TLR inhibition; assay type: cell-based, human; settings: HEK-Blue hTLR4, FIG. 4
[1] = tested on: MyD88- and TRIF-dependent TLR4 signaling; test: IRAK4 and IRF3 phosphorylation in LPS-treated RAW264.7 macrophages; assay type: cell-based, mouse; settings: RAW264.7, peptides after LPS treatment, FIG. 5
[2] = tested on: mouse model in which dry macular degeneration was induced by intraperitoneal administration of NaIO3; test: NaIO3-induced dry macular degeneration mouse model (SD-OCT, H&E staining); assay type: in vivo; settings: 20 µM (5 µL) to the upper corneal surface once a day for 21 days, FIGS. 12 and 13

Row | Sequence | TLR4 inhibitory activity according to the concentration of each peptide (TLR4) | IRAK4 phosphorylation [1] | IRF3 phosphorylation [1] | thickness of the ONL [2] | thickness of the RPE [2] | waste products [2]
1 | RQIKIWFQNRRMKWKKAFFWAQLKSVLGNPTM [TDIP3] | inhibitory activity was increased in a concentration-dependent manner | – | – | – | – | –
2 | RQIKIWFQNRRMKWKKAFLYTFLINLTHPTNF [TDIP2] | inhibitory activity was increased in a concentration-dependent manner | – | – | – | – | –
3 | RQIKIWFQNRRMKWKKLFFWESLKQLLRSDGR [TDIP6] | inhibitory activity was increased in a concentration-dependent manner | inhibits both MyD88- and TRIF-dependent TLR4 signaling | inhibits both MyD88- and TRIF-dependent TLR4 signaling | maintained | maintained | without waste products
4 | RQIKIWFQNRRMKWKKLVAHEISKKMKIFATI [TDIP20] | inhibitory activity was increased in a concentration-dependent manner | inhibits both MyD88- and TRIF-dependent TLR4 signaling | inhibits both MyD88- and TRIF-dependent TLR4 signaling | – | – | –
5 | RQIKIWFQNRRMKWKKNQWRNALTAAANLSGW [TDIP10] | inhibitory activity was increased in a concentration-dependent manner | – | – | – | – | –
6 | RQIKIWFQNRRMKWKKSSFREGLWRLLELSKK [TDIP8] | inhibitory activity was increased in a concentration-dependent manner | – | – | – | – | –
7 | RQIKIWFQNRRMKWKKTFLGHLYNALVQAGIH [TDIP5] | inhibitory activity was increased in a concentration-dependent manner | inhibits both MyD88- and TRIF-dependent TLR4 signaling | inhibits both MyD88- and TRIF-dependent TLR4 signaling | maintained | maintained | without waste products
8 | RQIKIWFQNRRMKWKKWALDELLQILHARELF [TDIP16] | inhibitory activity was increased in a concentration-dependent manner | – | – | – | – | –
9 | RQIKIWFQNRRMKWKKWFYERLVSLILRDTKV [TDIP1] | inhibitory activity was increased in a concentration-dependent manner | inhibits both MyD88- and TRIF-dependent TLR4 signaling | inhibits both MyD88- and TRIF-dependent TLR4 signaling | maintained | maintained | without waste products
10 | RQIKIWFQNRRMKWKKYAFTGHLHRYLVQRGV [TDIP7] | inhibitory activity was increased in a concentration-dependent manner | – | – | – | – | –
